This is an account of results in the supplement of paper PMC12067093, “Discovery and optimisation of a covalent ligand for TRIM25 and its application to targeted protein ubiquitination” (Chemical Science, 2025).

Protein sequences, listed by entry. Tags and fused reporters are not part of them. Lines headed by an entry give the natural chain unless they say otherwise; changes in a name come on top.
UniProt Q14790: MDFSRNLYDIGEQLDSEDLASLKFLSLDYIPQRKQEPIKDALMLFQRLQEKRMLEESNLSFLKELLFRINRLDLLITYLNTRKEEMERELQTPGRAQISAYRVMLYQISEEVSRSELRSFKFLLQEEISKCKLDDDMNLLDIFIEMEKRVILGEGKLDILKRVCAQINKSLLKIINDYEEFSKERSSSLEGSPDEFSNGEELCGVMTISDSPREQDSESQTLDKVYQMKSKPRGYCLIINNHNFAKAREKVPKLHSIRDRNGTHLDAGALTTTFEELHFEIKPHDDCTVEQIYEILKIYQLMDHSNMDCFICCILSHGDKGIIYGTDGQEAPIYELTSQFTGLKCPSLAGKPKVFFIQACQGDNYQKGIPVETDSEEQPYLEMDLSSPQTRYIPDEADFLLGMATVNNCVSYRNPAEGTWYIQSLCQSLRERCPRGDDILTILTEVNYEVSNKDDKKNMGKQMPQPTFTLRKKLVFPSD
UniProt O60826, whole entry, looked up: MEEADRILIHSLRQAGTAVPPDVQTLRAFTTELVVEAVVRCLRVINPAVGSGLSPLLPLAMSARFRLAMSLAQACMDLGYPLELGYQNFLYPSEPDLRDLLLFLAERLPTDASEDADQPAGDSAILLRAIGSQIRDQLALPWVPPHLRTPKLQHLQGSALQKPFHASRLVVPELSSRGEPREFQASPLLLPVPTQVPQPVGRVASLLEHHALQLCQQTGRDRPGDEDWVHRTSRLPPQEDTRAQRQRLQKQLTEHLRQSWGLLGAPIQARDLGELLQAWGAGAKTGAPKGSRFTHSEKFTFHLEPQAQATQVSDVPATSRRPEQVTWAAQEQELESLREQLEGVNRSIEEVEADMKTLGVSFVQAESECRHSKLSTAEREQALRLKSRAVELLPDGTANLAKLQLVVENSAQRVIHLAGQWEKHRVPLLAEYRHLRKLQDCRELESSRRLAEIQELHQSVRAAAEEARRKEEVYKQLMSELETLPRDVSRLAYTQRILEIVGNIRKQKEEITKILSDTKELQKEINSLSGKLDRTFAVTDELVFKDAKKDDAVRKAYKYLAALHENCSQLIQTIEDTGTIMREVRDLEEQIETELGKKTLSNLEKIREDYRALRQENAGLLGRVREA
UniProt P40121: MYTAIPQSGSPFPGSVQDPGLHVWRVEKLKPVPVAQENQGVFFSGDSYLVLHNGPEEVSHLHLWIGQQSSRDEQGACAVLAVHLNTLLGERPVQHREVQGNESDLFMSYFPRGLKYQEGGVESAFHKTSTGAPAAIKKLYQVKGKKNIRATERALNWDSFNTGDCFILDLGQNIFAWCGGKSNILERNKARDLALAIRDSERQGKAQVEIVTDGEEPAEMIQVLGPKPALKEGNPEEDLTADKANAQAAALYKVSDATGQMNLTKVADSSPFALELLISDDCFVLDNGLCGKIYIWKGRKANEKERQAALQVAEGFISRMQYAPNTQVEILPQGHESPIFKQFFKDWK
UniProt P42575: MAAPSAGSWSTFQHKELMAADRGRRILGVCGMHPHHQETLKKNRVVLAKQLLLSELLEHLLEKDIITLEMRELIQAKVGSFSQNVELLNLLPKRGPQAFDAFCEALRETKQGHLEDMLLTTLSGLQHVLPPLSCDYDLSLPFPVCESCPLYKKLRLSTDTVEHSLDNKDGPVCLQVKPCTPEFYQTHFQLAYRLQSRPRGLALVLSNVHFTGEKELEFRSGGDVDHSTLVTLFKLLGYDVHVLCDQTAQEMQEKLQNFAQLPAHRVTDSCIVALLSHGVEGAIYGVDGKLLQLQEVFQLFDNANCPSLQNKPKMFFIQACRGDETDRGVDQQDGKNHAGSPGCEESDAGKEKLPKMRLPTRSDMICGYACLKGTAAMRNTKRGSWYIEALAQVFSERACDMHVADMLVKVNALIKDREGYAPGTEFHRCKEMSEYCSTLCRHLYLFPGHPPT
UniProt P49662: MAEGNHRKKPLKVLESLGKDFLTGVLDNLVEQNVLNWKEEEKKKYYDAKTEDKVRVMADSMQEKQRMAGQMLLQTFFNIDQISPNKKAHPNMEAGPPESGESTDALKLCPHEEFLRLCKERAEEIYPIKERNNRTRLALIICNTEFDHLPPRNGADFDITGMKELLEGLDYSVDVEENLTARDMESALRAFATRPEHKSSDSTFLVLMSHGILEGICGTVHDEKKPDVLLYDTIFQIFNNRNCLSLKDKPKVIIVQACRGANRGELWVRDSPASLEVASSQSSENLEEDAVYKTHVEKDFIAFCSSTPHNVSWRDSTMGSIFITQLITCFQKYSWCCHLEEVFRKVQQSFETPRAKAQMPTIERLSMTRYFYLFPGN
UniProt Q96NT0: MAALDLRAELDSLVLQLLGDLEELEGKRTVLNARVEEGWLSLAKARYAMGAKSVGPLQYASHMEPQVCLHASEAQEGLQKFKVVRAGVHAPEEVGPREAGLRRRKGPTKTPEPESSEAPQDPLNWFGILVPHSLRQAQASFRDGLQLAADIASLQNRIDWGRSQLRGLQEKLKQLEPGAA
UniProt Q96LW7: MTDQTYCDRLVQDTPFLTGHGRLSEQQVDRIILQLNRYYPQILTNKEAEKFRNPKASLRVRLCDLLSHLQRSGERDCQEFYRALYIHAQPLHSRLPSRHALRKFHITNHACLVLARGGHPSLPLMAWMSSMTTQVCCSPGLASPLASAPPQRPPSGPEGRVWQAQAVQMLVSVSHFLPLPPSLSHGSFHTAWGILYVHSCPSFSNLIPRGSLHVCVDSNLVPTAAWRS
UniProt P49368: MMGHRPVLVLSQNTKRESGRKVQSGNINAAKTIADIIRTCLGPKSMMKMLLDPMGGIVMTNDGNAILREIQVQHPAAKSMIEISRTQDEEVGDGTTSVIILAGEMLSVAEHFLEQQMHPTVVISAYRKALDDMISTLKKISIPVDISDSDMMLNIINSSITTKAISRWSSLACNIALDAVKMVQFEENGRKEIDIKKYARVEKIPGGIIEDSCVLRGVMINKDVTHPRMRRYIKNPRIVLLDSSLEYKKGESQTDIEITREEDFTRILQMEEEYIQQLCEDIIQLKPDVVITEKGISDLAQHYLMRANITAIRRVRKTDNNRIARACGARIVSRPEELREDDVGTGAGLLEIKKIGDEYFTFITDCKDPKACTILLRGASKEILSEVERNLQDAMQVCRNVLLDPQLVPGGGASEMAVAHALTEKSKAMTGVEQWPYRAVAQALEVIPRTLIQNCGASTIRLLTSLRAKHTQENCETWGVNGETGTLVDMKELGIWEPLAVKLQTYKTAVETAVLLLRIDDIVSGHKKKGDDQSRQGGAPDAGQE
UniProt Q6P1N0: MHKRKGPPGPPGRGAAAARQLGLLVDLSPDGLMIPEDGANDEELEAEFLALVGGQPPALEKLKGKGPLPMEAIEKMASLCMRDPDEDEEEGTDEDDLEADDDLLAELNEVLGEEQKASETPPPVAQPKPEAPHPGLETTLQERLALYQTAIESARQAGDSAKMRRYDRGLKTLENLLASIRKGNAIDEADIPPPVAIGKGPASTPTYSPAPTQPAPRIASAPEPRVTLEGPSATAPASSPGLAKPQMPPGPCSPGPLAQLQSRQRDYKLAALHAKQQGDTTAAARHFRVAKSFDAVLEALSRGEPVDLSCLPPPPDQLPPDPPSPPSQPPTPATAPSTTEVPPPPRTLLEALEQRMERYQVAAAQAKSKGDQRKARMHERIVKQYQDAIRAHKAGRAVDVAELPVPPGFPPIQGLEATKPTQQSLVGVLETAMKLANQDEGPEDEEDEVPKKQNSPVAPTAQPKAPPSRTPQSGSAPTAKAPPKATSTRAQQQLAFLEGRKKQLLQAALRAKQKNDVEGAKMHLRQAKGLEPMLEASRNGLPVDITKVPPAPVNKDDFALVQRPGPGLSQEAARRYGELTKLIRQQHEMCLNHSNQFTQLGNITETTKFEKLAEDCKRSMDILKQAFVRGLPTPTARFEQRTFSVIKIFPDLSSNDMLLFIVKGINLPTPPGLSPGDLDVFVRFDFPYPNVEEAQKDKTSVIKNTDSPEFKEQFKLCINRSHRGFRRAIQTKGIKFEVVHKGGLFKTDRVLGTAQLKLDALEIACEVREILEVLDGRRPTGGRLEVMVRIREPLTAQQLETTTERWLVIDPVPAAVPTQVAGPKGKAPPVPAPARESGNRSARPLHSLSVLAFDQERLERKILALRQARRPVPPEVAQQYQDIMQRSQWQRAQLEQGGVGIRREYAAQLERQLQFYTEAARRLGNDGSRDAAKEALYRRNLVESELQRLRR
UniProt P47756, whole entry, looked up: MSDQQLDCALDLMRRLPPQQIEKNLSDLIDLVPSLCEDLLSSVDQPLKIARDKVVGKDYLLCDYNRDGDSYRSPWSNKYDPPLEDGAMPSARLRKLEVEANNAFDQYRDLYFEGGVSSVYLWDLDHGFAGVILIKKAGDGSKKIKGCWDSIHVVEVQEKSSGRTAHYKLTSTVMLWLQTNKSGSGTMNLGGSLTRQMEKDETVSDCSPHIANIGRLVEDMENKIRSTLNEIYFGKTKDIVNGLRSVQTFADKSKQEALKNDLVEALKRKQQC
UniProt Q86WR0: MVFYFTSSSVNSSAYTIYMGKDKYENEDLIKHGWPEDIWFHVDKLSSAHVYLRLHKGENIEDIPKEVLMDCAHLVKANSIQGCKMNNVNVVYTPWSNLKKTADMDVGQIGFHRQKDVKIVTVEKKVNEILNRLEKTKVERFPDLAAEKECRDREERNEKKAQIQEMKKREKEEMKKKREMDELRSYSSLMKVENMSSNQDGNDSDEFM
UniProt P29466: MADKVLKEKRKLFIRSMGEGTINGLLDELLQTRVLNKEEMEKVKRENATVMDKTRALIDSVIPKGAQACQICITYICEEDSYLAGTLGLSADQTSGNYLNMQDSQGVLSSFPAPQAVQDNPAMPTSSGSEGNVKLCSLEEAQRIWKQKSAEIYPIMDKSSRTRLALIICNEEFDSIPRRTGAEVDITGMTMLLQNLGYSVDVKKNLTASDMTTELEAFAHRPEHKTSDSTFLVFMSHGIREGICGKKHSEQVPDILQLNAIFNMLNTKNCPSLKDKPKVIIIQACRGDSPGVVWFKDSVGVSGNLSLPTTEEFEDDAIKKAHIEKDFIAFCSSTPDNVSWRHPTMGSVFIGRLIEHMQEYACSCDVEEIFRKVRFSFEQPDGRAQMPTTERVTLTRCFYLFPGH
UniProt O43303: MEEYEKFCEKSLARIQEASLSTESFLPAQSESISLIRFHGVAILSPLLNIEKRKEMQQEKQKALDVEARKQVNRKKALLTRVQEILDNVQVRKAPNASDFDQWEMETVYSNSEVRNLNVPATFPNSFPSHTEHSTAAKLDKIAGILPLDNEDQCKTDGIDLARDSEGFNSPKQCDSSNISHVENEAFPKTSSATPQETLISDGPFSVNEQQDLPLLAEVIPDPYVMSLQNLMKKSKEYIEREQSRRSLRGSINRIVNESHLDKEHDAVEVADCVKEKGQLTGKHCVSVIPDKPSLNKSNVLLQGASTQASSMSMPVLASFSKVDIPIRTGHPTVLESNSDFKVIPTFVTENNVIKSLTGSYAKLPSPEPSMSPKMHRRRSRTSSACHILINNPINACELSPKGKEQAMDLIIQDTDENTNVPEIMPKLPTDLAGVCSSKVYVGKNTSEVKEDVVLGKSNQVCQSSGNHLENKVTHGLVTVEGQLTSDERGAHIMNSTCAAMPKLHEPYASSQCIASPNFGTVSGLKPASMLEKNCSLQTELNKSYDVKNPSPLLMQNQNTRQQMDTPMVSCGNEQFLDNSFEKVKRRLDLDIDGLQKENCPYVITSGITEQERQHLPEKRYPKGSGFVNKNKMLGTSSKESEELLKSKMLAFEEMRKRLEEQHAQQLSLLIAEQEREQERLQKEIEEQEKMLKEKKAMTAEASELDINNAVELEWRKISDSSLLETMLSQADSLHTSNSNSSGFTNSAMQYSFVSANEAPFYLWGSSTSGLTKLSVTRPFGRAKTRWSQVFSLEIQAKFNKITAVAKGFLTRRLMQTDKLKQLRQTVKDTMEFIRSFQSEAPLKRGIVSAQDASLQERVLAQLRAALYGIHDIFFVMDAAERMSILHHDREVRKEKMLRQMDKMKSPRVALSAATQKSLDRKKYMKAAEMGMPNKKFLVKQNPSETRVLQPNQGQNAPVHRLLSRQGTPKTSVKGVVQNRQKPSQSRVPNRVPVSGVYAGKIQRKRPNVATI
UniProt P55211: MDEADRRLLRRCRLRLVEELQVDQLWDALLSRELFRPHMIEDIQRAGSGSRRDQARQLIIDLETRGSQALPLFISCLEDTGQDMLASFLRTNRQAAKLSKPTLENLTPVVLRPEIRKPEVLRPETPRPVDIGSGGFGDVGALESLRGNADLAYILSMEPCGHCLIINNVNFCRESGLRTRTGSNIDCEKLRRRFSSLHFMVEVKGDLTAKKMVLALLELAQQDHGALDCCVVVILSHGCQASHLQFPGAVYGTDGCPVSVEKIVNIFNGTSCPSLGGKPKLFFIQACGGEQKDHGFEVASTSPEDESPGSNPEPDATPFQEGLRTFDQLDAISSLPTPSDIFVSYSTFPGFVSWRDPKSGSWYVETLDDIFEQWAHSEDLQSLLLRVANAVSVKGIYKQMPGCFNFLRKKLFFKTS

The list shows a part of the results.

Compound in this assay: CC1Cc2ccccc2N1C(=O)C1CCCN(C1)C(=O)CCl (mixture of isomers) [TRIM25 ligand 11 (diastereomer mixture)]
As to the kind of experiment: probe-labelled cysteine peptide fold change vs DMSO (competition) (log2 fold change); higher = less target engagement (more negative = stronger competition). The note with it: THP-1, incubation time: 4 h.
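Further: competitive chemoproteomic profiling in live THP-1 cells with an iodoacetamide desthiobiotin (IA-DTB) probe, comparing probe-labelled peptide intensities in compound-treated cells against DMSO-treated controls.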

Regarding “CASP8_Q14790_309_IYQLMDHSNMDCFICCILSHGDK (UniProt Q14790)”, the “probe-labelled cysteine peptide fold change” value (10 µM) came to 0.0241 and the “probe-labelled cysteine peptide fold change” value (50 µM) is -0.374.

For “CBLL1_Q75N03_172_GSLFMCSIVQGCK (UniProt Q75N03)”, the “probe-labelled cysteine peptide fold change” value (10 µM) was found to be 0.0434 and the “probe-labelled cysteine peptide fold change” value (50 µM) worked out at 0.0724.

Turning to “CCPG1_Q9ULG6_672_ELDTFCHWNELDQFINK (UniProt Q9ULG6)”, the “probe-labelled cysteine peptide fold change” value runs as follows: (10 µM) 0.165; (50 µM) 0.272.

On to “CCDC22_O60826_567_YLAALHENCSQLIQTIEDTGTIMR (UniProt O60826)”, for which the “probe-labelled cysteine peptide fold change” value is, setting by setting: (10 µM) 0.518; (50 µM) 0.529.

For the target “CANX_P27824_360+366_CESAPGCGVWQR (UniProt P27824)”, the “probe-labelled cysteine peptide fold change” value (10 µM) was determined as 0.12 and the “probe-labelled cysteine peptide fold change” value (50 µM) is 0.148.

Regarding “CAPN1_P07384_351_LEICNLTPDALK (UniProt P07384)”, the “probe-labelled cysteine peptide fold change” value is, setting by setting: (10 µM) 0.115; (50 µM) -0.0444.

For the target “CAPG_P40121_77_DEQGACAVLAVHLNTLLGERPVQHR (UniProt P40121)”, the “probe-labelled cysteine peptide fold change” value by setting is: (10 µM) 0.0244; (50 µM) -0.0315.

“CARS2_Q9HA77_387_GQLACGSVR (UniProt Q9HA77)”: the “probe-labelled cysteine peptide fold change” value (10 µM) worked out at 0.0928 and the “probe-labelled cysteine peptide fold change” value (50 µM) was 0.0168.

On to “CBR1_P16152_122_DVCTELLPLIKPQGR (UniProt P16152)”, for which the “probe-labelled cysteine peptide fold change” value by setting is: (10 µM) -0.126; (50 µM) -0.0753.

Regarding “CASP8_Q14790_236_GYCLIINNHNFAK (UniProt Q14790)”, the “probe-labelled cysteine peptide fold change” value (10 µM) is -0.0193 and the “probe-labelled cysteine peptide fold change” value (50 µM) is -0.0456.

As to “CASP7_P55210_246_GSWFVQALCSILEEHGK (UniProt P55210)”, the “probe-labelled cysteine peptide fold change” value (10 µM) amounted to 0.0128 and the “probe-labelled cysteine peptide fold change” value (50 µM) amounted to 0.0373.

Turning to “CCNK_O75909_23_ENSSPSVTSANLDHTKPCWYWDK (UniProt O75909)”, the “probe-labelled cysteine peptide fold change” value (10 µM) was -0.222 and the “probe-labelled cysteine peptide fold change” value (50 µM) was -0.323.

Turning to “CBX4_O00257_185_EAPSPTCPDLGAK (UniProt O00257)”, the “probe-labelled cysteine peptide fold change” value runs as follows: (10 µM) -0.174; (50 µM) -0.317.

As for “CASP2_P42575_270_VTDSCIVALLSHGVEGAIYGVDGK (UniProt P42575)”, the “probe-labelled cysteine peptide fold change” value reads like this: (10 µM) -0.0845; (50 µM) 0.0634.

As to “CASP4_P49662_336+337_YSWCCHLEEVFR (UniProt P49662)”, the “probe-labelled cysteine peptide fold change” value reads like this: (10 µM) -0.294; (50 µM) -0.276.

Take “CASP2_P42575_30_ILGVCGMHPHHQETLKK (UniProt P42575)”: the “probe-labelled cysteine peptide fold change” value is -0.263 (10 µM) and -0.383 (50 µM).

With “CCDC58_Q4VC31_74_NCIAQTSAVVK (UniProt Q4VC31)”, the “probe-labelled cysteine peptide fold change” value runs as follows: (10 µM) -0.0247; (50 µM) 0.0677.

In the case of “CCDC115_Q96NT0_68_SVGPLQYASHMEPQVCLHASEAQEGLQK (UniProt Q96NT0)”, the “probe-labelled cysteine peptide fold change” value was 0.125 (10 µM) and -0.015 (50 µM).

As for “CARD19_Q96LW7_63_LCDLLSHLQR (UniProt Q96LW7)”, the “probe-labelled cysteine peptide fold change” value is -0.191 (10 µM) and -0.00311 (50 µM).

As to “CAST_P20810_381_SESELIDELSEDFDRSECK (UniProt P20810)”, the “probe-labelled cysteine peptide fold change” value runs as follows: (10 µM) -0.0782; (50 µM) -0.152.

With “CAPN2_P17655_301_WNDNCPSWNTIDPEERER (UniProt P17655)”, the “probe-labelled cysteine peptide fold change” value is -0.267 (10 µM) and -0.144 (50 µM).

As to “CARD9_Q9H257_178_CKEENYDLAMR (UniProt Q9H257)”, the “probe-labelled cysteine peptide fold change” value reads like this: (10 µM) -0.0469; (50 µM) 0.112.

For the target “CAPNS1_P04632_190_SGTICSSELPGAFEAAGFHLNEHLYNMIIR (UniProt P04632)”, the “probe-labelled cysteine peptide fold change” value by setting is: (10 µM) 0.128; (50 µM) 0.0236.

“CCT3_P49368_455_TLIQNCGASTIR (UniProt P49368)”: the “probe-labelled cysteine peptide fold change” value is -0.0416 (10 µM) and 0.0607 (50 µM).

As to “CARHSP1_Q9Y2V2_112_MCSIPPK (UniProt Q9Y2V2)”, the “probe-labelled cysteine peptide fold change” value is, setting by setting: (10 µM) -0.0249; (50 µM) 0.0376.

On to “CC2D1A_Q6P1N0_590_QQHEMCLNHSNQFTQLGNITETTKFEK (UniProt Q6P1N0)”, for which the “probe-labelled cysteine peptide fold change” value is, setting by setting: (10 µM) -0.186; (50 µM) -0.079.

For the target “CCDC22_O60826_441_KLQDCR (UniProt O60826)”, the “probe-labelled cysteine peptide fold change” value was -0.0662 (10 µM) and -0.108 (50 µM).

Regarding “CAPZB_P47756_206_DETVSDCSPHIANIGR (UniProt P47756)”, the “probe-labelled cysteine peptide fold change” value reads like this: (10 µM) 0.0274; (50 µM) -0.045.

As to “CASP2_P42575_399_ACDMHVADMLVK (UniProt P42575)”, the “probe-labelled cysteine peptide fold change” value was -0.0528 (10 µM) and -0.0975 (50 µM).

For the target “CARM1_Q86X55_193_IVLDVGCGSGILSFFAAQAGAR (UniProt Q86X55)”, the “probe-labelled cysteine peptide fold change” value (10 µM) amounted to 0.174 and the “probe-labelled cysteine peptide fold change” value (50 µM) was -0.117.

For “CARD6_Q9BX69_292_DVLLCLNMDR (UniProt Q9BX69)”, the “probe-labelled cysteine peptide fold change” value reads like this: (10 µM) -0.153; (50 µM) -0.113.

As for “CCDC25_Q86WR0_83_ANSIQGCK (UniProt Q86WR0)”, the “probe-labelled cysteine peptide fold change” value (10 µM) is -0.0966 and the “probe-labelled cysteine peptide fold change” value (50 µM) was -0.0368.

With “CASP1_P29466_169_LALIICNEEFDSIPR (UniProt P29466)”, the “probe-labelled cysteine peptide fold change” value (10 µM) is 0.089 and the “probe-labelled cysteine peptide fold change” value (50 µM) is -0.0438.

As for “CCP110_O43303_285_HCVSVIPDKPSLNK (UniProt O43303)”, the “probe-labelled cysteine peptide fold change” value is, setting by setting: (10 µM) 0.116; (50 µM) -0.0678.

With “CASP8AP2_Q9UKL3_174_SPHLDDCSK (UniProt Q9UKL3)”, the “probe-labelled cysteine peptide fold change” value runs as follows: (10 µM) 0.238; (50 µM) 0.155.

As to “CASP9_P55211_187_TGSNIDCEK (UniProt P55211)”, the “probe-labelled cysteine peptide fold change” value runs as follows: (10 µM) -0.136; (50 µM) 0.00846.
